The other results are listed elsewhere or left out.
Key:
Assay in all cases: glycan array binding signal (z-score within array); higher = stronger binding
Settings in all cases: glycan notation: IUPAC condensed, linker removed
Gal6S(b1-4)Glc6S = molecular target: Gal6S(b1-4)Glc6S
Procedure, shortened: (§1)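 Arrays were curated from the Consortium for Functional Glycomics database, 3228 in total, and kept only where the protein sequence was available. Binding is expressed as a within-array Z-score. This score was averaged across arrays of the same protein sequence at different concentrations or buffers and across linkers, and negative values can be read as non-binding.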

Gal6S(b1-4)GlcNAc = molecular target: Gal6S(b1-4)GlcNAc
Procedure, shortened: as §1

Gal6S(b1-4)GlcNAc6S = molecular target: Gal6S(b1-4)GlcNAc6S
Procedure, shortened: as §1

GalNAc(a1-3)Gal = molecular target: GalNAc(a1-3)Gal
Procedure, shortened: as §1

GalNAc(a1-3)GalNAc = molecular target: GalNAc(a1-3)GalNAc
Procedure, shortened: as §1

[1] = molecular target: GalNAc(a1-3)GalNAc(a1-3)Gal(a1-4)Gal(b1-4)GlcNAc
Procedure, shortened: as §1

[2] = molecular target: GalNAc(a1-3)GalNAc(b1-3)Gal(a1-4)Gal(b1-4)Glc
Procedure, shortened: as §1

GalNAc(b1-3)Gal = molecular target: GalNAc(b1-3)Gal
Procedure, shortened: as §1

[3] = molecular target: GalNAc(b1-3)Gal(a1-4)Gal(b1-4)GlcNAc
Procedure, shortened: as §1

[4] = molecular target: GalNAc(b1-3)Gal(a1-4)Gal(b1-4)GlcNAc(b1-3)Gal(b1-4)Glc
Procedure, shortened: as §1

[5] = molecular target: GalNAc(b1-3)Gal(a1-6)Gal(b1-4)Glc
Procedure, shortened: as §1

GalNAc(b1-3)GalNAc = molecular target: GalNAc(b1-3)GalNAc
Procedure, shortened: as §1

GalNAc(b1-3)GlcNAc = molecular target: GalNAc(b1-3)GlcNAc
Procedure, shortened: as §1

GalNAc(b1-4)Gal(b1-4)Glc = molecular target: GalNAc(b1-4)Gal(b1-4)Glc
Procedure, shortened: as §1

GalNAc(b1-4)GlcNAc = molecular target: GalNAc(b1-4)GlcNAc
Procedure, shortened: as §1

[6] = molecular target: GalNAc(b1-4)GlcNAc(b1-2)Man
Procedure, shortened: as §1

[7] = molecular target: GalNAc(b1-4)GlcNAc(b1-2)Man(a1-3)[GalNAc(b1-4)GlcNAc(b1-2)Man(a1-6)]Man(b1-4)GlcNAc(b1-4)GlcNAc
Procedure, shortened: as §1

[8] = molecular target: GalNAc(b1-4)GlcNAc(b1-3)GalNAc(b1-4)GlcNAc
Procedure, shortened: as §1

GalNAc(b1-4)GlcNAc6S = molecular target: GalNAc(b1-4)GlcNAc6S
Procedure, shortened: as §1

GalNAc(b1-6)GalNAc = molecular target: GalNAc(b1-6)GalNAc
Procedure, shortened: as §1

GalNAc3S(b1-4)GlcNAc = molecular target: GalNAc3S(b1-4)GlcNAc
Procedure, shortened: as §1

GalNAc3S(b1-4)GlcNAc3S = molecular target: GalNAc3S(b1-4)GlcNAc3S
Procedure, shortened: as §1

[9] = molecular target: GalNAc3S(b1-4)[Fuc(a1-3)]GlcNAc
Procedure, shortened: as §1

GalNAc4S6S(b1-4)GlcNAc = molecular target: GalNAc4S6S(b1-4)GlcNAc
Procedure, shortened: as §1

GalNAc6S(b1-4)GlcNAc = molecular target: GalNAc6S(b1-4)GlcNAc
Procedure, shortened: as §1

Glc(a1-4)Glc = molecular target: Glc(a1-4)Glc
Procedure, shortened: as §1

[10] = molecular target: Glc(a1-4)Glc(a1-4)Glc(a1-4)Glc
Procedure, shortened: as §1

Glc(a1-6)Glc(a1-6)Glc = molecular target: Glc(a1-6)Glc(a1-6)Glc
Procedure, shortened: as §1

[11] = molecular target: Glc(a1-6)Glc(a1-6)Glc(a1-6)Glc
Procedure, shortened: as §1

Glc(b1-4)Glc = molecular target: Glc(b1-4)Glc
Procedure, shortened: as §1

Glc(b1-6)Glc = molecular target: Glc(b1-6)Glc
Procedure, shortened: as §1

GlcA(b1-3)Gal = molecular target: GlcA(b1-3)Gal
Procedure, shortened: as §1

GlcA(b1-3)GlcNAc = molecular target: GlcA(b1-3)GlcNAc
Procedure, shortened: as §1

GlcA(b1-6)Gal = molecular target: GlcA(b1-6)Gal
Procedure, shortened: as §1

[12] = molecular target: GlcA3S(b1-3)Gal(b1-4)GlcNAc(b1-2)Man
Procedure, shortened: as §1

[13] = molecular target: GlcA3S(b1-3)Gal(b1-4)GlcNAc(b1-3)Gal(b1-4)Glc
Procedure, shortened: as §1

[14] = molecular target: GlcNAc(a1-3)Gal(b1-4)GlcNAc
Procedure, shortened: as §1

B1: SspB C123 (Streptococcus gordonii), Q54186 (protein)
chain: MAHFHYSSLLAQPQINKEIKNEDGVDIDRTLVAKQSIGKFELKTEALTAGRPKTTSFVLVDPLPTGYKFDLDATKAASTGFDTTYDEASHTVTFKATDETLATYNADLTKPVETLHPTVVGRVLNDGATYTNNFTLTVNDAYGIKSNVVRVTTPGKPNDPDNPNNNYIKPTKVNKNKEGLNIDGKEVLAGSTNYYELTWDLDQYKGDKSSKEAIQNGFYYVDDYPEEALDVRPDLVKVADEKGNQVSGVSVQQYDSLEAAPKKVQDLLKKANITVKGAFQLFSADNPEEFYKQYVSTGTSLVITDPMTVKSEFGKTGGKYENKAYQIDFGNGYATEVVVNNVPKITPKKDVTVSLDPTSENLDGQTVQLYQTFNYRLIGGFIPQNHSEELEDYSFVDDYDQAGDQYTGNYKTFSSLNLTMKDGSVIKAGTDLTSQTTAETDATNGIVTVRFKEDFLQKISLDSPFQAETYLQMRRIAIGTFENTYVNTVNKVAYASAAALEHHHHHH
- glycan array binding signal (z-score) (Gal6S(b1-4)Glc6S): -0.505
- glycan array binding signal (z-score) (Gal6S(b1-4)GlcNAc): -1.08
- glycan array binding signal (z-score) (Gal6S(b1-4)GlcNAc6S): 1.05
- glycan array binding signal (z-score) (GalNAc(a1-3)Gal): 0.05
- glycan array binding signal (z-score) (GalNAc(a1-3)GalNAc): -0.525
- glycan array binding signal (z-score) [1]: -1.11
- glycan array binding signal (z-score) [2]: -0.693
- glycan array binding signal (z-score) (GalNAc(b1-3)Gal): -0.132
- glycan array binding signal (z-score) [3]: 2.25
- glycan array binding signal (z-score) [4]: -1.07
- glycan array binding signal (z-score) [5]: -0.455
- glycan array binding signal (z-score) (GalNAc(b1-3)GalNAc): 0.351
- glycan array binding signal (z-score) (GalNAc(b1-3)GlcNAc): -0.14
- glycan array binding signal (z-score) (GalNAc(b1-4)Gal(b1-4)Glc): 1.78
- glycan array binding signal (z-score) (GalNAc(b1-4)GlcNAc): 0.637
- glycan array binding signal (z-score) [6]: -0.023
- glycan array binding signal (z-score) [7]: 1.55
- glycan array binding signal (z-score) [8]: -1.02
- glycan array binding signal (z-score) (GalNAc(b1-4)GlcNAc6S): -0.246
- glycan array binding signal (z-score) (GalNAc(b1-6)GalNAc): 0.246
- glycan array binding signal (z-score) (GalNAc3S(b1-4)GlcNAc): -0.617
- glycan array binding signal (z-score) (GalNAc3S(b1-4)GlcNAc3S): -0.551
- glycan array binding signal (z-score) [9]: 0.635
- glycan array binding signal (z-score) (GalNAc4S6S(b1-4)GlcNAc): -0.886
- glycan array binding signal (z-score) (GalNAc6S(b1-4)GlcNAc): -0.443
- glycan array binding signal (z-score) (Glc(a1-4)Glc): -0.478
- glycan array binding signal (z-score) [10]: 0.337
- glycan array binding signal (z-score) (Glc(a1-6)Glc(a1-6)Glc): 1.79
- glycan array binding signal (z-score) [11]: 0.098
- glycan array binding signal (z-score) (Glc(b1-4)Glc): -0.604
- glycan array binding signal (z-score) (Glc(b1-6)Glc): -1.66
- glycan array binding signal (z-score) (GlcA(b1-3)Gal): -1.48
- glycan array binding signal (z-score) (GlcA(b1-3)GlcNAc): -0.479
- glycan array binding signal (z-score) (GlcA(b1-6)Gal): 3.52
- glycan array binding signal (z-score) [12]: -0.13
- glycan array binding signal (z-score) [13]: 0.178
- glycan array binding signal (z-score) [14]: -1.31
